Binding data for one molecule are collected here from article PMC8265671.

No constants are given. Whether binding was seen depends on the method and setting. In cells and extracts the contact can be indirect. Binding calls can cover weak binding; strength is not graded here.

The assay concerns the target FLAG-tagged TgMLC1 C8S (Toxoplasma gondii). The experiment in a line: co-IP; anti-FLAG M2 affinity resin, Triton X-100 extract of parasites in FLAG lysis buffer (10 mM imidazole pH 7.4, 300 mM NaCl, 1 mM EGTA, 5 mM MgCl2, 1% TX-100, 2 mM DTT, 2 mM ATP), overnight at 4°C, eluted with FLAG peptide, quantitative Western blotting.

B1: TgGAP45 (Toxoplasma gondii glideosome-associated protein 45) (protein, UniProt Q7Z289 1-245)
chain: MGNACKKNTAKTPTRKEAEDLAEKERQEREAKEKAEAEEKARAEAEKNAADKAEAERRAAEAREREESARKEAEAEAARKAEAEAAEAERLRKEAEKKKAEEAKRKAEEEQRAAAEEAEQRAREEAERRKAEAAAAAERERQMQEALKQEEMSPREKYDKLASPEDSASETTMATQPQKVAEHSSAAVTDRSVVGYTVTPCDMAAIDETAKYLSKRCGCDLGDQHDENECPICRHIDLSDAPLLN
Turning to B1, the binding result is listed as “binds”.
